Measurements as given in patent US11236129B2, “IL-17A binding peptides and medical uses thereof” (Dompe' Farmaceutici S.P.A., priority 2018, dated 2022).
At least one structure is not confirmed: it was looked up by name or label, or the drawing left a doubt. Residues, ends and D or L forms follow the SMILES beside them.

Amino acid sequences for entries named in this document (tags omitted). Residues count along the entry.
UniProt Q16552, 24-155: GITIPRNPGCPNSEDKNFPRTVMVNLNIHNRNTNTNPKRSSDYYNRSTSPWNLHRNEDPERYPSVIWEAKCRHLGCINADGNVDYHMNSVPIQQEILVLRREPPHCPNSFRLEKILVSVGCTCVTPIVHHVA

Molecular target: IL-17RA/IL17RC dimerization induced by IL-17A (Homo sapiens, UniProt Q16552)
Experiment: IL-17RA/IL17RC dimerization assay in response to IL-17A (PathHunter Cytokine Receptor Assay)
Format: cell-based
Details: IL-17A at EC80; read-out: IC50 in IL-17RA/IL7RC dimerization assay
Procedure: The peptides of Table 7 were tested for their ability to inhibit the binding of IL-17A to its receptor and the subsequent interaction of IL-17RA and IL17RC.
Interleukin receptor RA and RC dimerization assay (DiscoverX) was used to measure the interaction of the receptor chains IL-17RA and IL17RC upon activation by IL-17A in the absence or presence of the peptides of Table 7.
In the PathHunter® Cytokine Receptor Assay, one cytokine receptor chain is tagged with a small peptide epitope ProLink (PK) and the other chain is tagged with Enzyme Acceptor (EA). Ligand binding induces dimerization of the two receptors, facilitating complementation of PK and EA fragments. This interaction generates an active unit of b-galactosidase, which is detected using a chemiluminescent substrate. PathHunter cell lines were expanded from freezer stocks according to standard procedures. Cells were seeded in a total volume of 20 μL into white walled, 384-well microplates and incubated for the appropriate time prior to testing. For agonist activity inhibition, cells were incubated with sample to induce response. Intermediate dilution of sample stocks was performed to generate 5× sample in assay buffer. 5 μL of 5× sample was added to cells and incubated at 37° C. or room temperature for 60 minutes. Vehicle concentration was 1%. 5 μL of 6×EC80 agonist (IL-17A) in assay buffer was added to the cells and incubated at 37° C. for 6 to 16 hours depending on the assay. 1. […] For some assays, activity was detected using a high sensitivity detection reagent (PathHunter Flash Kit) to improve assay performance. In these assays, an equal volume of detection reagent (25 or 30 uL) was added to the wells, followed by a one hour incubation at room temperature. Microplates were read following signal generation with a PerkinElmer Envision™ instrument for chemiluminescent signal detection. Compound activity was analyzed using CBIS data analysis suite (ChemInnovation, CA). % Inhibition=100%×(1−(mean RLU of test sample−mean RLU of vehicle control)/(mean RLU of EC80 control−mean RLU of vehicle control)).

| Compound | IC50 [nM] |
| --- | --- |
| CC[C@H](C)[C@H](NC(=O)[C@H](Cc1c[nH]c2ccccc12)NC(=O)[C@H](CCC(=O)O)NC(=O)[C@H](Cc1ccc(O)cc1)NC(=O)[C@H](CC(C)C)NC(=O)[C@H](CC(=O)O)NC(=O)[C@H](C)NC(=O)[C@@H]1CCCN1C(=O)[C@@H](NC(=O)[C@@H](NC(=O)[C@@H](NC(=O)[C@H](CCSC)NC(=O)[C@@H](NC(=O)[C@@H](C)O[C@H]1[C@H](O)[C@@H](CO)OC(O)[C@@H]1NC(C)=O)[C@@H](C)CC)C(C)C)[C@@H](C)O)[C@@H](C)CC)C(=O)N[C@@H](CCC(=O)O)C(=O)N[C@@H](CCC(=O)O)C(N)=O (stereo partly shown) [BIO-1] | < 1000 |
| CC[C@H](C)[C@H](NC(=O)OC1=C(O)C(=O)O[C@@H]1[C@@H](O)CO)C(=O)N[C@@H](CCSC)C(=O)N[C@H](C(=O)N[C@H](C(=O)N[C@H](C(=O)N1CCC[C@H]1C(=O)N[C@@H](C)C(=O)N[C@@H](CC(=O)O)C(=O)N[C@@H](CC(C)C)C(=O)N[C@@H](Cc1ccc(O)cc1)C(=O)N[C@@H](CCC(=O)O)C(=O)N[C@@H](Cc1c[nH]c2ccccc12)C(=O)N[C@H](C(=O)N[C@@H](CCC(=O)O)C(=O)N[C@@H](CCC(=O)O)C(N)=O)[C@@H](C)CC)[C@@H](C)CC)[C@@H](C)O)C(C)C [BIO-5] | < 1000 |
| CC[C@H](C)[C@H](NC(C)=O)C(=O)N[C@@H](Cc1c[nH]cn1)C(=O)N[C@H](C(=O)N[C@H](C(=O)N[C@H](C(=O)N1CCC[C@H]1C(=O)N[C@@H](C)C(=O)N[C@@H](CC(=O)O)C(=O)N[C@@H](CC(C)C)C(=O)N[C@@H](Cc1ccc(O)cc1)C(=O)N[C@@H](CCC(=O)O)C(=O)N[C@@H](Cc1c[nH]c2ccccc12)C(=O)N[C@H](C(=O)N[C@@H](CC(N)=O)C(=O)N[C@@H](CCCCN)C(N)=O)[C@@H](C)CC)[C@@H](C)CC)[C@@H](C)O)C(C)C [SEQ ID NO: 7] (Ac-IHVTIPADLYEWINK-NH2) | < 100 |
| CC[C@H](C)[C@H](NC(C)=O)C(=O)N[C@@H](Cc1c[nH]cn1)C(=O)N[C@H](C(=O)N[C@H](C(=O)N[C@H](C(=O)N1CCC[C@H]1C(=O)N[C@@H](C)C(=O)N[C@@H](CC(=O)O)C(=O)N[C@@H](CC(C)C)C(=O)N[C@@H](Cc1ccc(O)cc1)C(=O)N[C@@H](CCC(=O)O)C(=O)N[C@@H](Cc1c[nH]c2ccccc12)C(=O)N[C@H](C(=O)N[C@@H](CC(N)=O)C(=O)N[C@@H](CCCCN)C(N)=O)[C@@H](C)CC)[C@@H](C)CC)[C@@H](C)O)C(C)C [SEQ ID NO: 13] (Ac-IHVTIPADLYEWINK-NH2) | < 400 |
